Test results: patent US20170183667A1 (ANAEROPHARMA SCIENCE, published 2017)
Results are given in words; binding and its absence hold for the method and conditions named. Some entries that bind do so weakly or less than the wild type.

Protein sequences, listed by entry. Tags and fused reporters are not part of them. Lines headed by an entry give the natural chain unless they say otherwise; changes in a name come on top. Residues count along the entry.
UniProt Q15116: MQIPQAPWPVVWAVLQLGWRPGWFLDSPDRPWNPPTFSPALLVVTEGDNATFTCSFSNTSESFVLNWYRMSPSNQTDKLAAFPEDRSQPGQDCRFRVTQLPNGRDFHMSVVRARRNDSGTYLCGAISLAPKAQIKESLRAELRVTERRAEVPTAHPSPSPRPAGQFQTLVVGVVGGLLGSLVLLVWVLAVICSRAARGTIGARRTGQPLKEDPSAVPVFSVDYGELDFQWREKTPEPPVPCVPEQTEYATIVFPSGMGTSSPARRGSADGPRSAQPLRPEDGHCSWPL
human PD-1 over-expressed on Jurkat cells and HEK293T cells: residues 25-288 of Q15116
Recombinant Human PD-1 Fc Chimera (R&D Systems): residues 25-167 of Q15116
UniProt Q02242: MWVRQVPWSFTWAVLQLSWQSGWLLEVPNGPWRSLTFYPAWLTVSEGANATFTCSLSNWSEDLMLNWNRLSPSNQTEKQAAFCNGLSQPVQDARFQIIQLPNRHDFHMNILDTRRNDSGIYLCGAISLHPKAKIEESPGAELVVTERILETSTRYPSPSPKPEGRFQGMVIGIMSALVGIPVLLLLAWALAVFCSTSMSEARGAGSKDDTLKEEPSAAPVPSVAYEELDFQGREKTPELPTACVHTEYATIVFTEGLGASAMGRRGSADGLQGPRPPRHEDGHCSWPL
mouse PD-1 expressed on CD3/CD28-stimulated CD4 positive cells of Balb/c mouse spleen: residues 25-288 of Q02242
Recombinant Mouse PD-1 Fc Chimera (R&D Systems): residues 25-167 of Q02242

Assays:
[1] = target: human PD-1 over-expressed on Jurkat cells and HEK293T cells (human) (UniProt Q15116); test: flow cytometry
[2] = target: Recombinant Human PD-1 Fc Chimera (R&D Systems) (human) (UniProt Q15116); test: ELISA, hPD-1 Fc chimera immobilised
[3] = target: human PD-1 over-expressed on Jurkat cells and HEK293T cells (human) (UniProt Q15116); test: flow cytometry, Jurkat cells over-expressing human PD-1, scFv 10 ug/mL
[4] = target: human PD-1 over-expressed on Jurkat cells and HEK293T cells (human) (UniProt Q15116); test: flow cytometry, HEK293T cells over-expressing human PD-1, scFv 10 ug/mL
[5] = target: Recombinant Mouse PD-1 Fc Chimera (R&D Systems) (mouse) (UniProt Q02242); test: ELISA, mPD-1 Fc chimera immobilised
[6] = target: mouse PD-1 expressed on CD3/CD28-stimulated CD4 positive cells of Balb/c mouse spleen (mouse) (UniProt Q02242); test: flow cytometry, scFv 10 ug/mL, anti-His-tag Alexa Fluor 488 detection

Measured: binding

B1: anti-PD-1-2 scFv antibody purified from Bifidobacterium longum 105-A/pHuSP7L20-scFv-PD-1-2 strain (scFv)
scFv: DSAQTSAVVSSRSFPKASSVMQVQLQESGPGLVKPSQSLSLTCTVTGHSITSDYAWNWIRQFPGDKLEWMGYISYSGYTTYNPSLKSRVSITRDTSKNQFFLQLNSVTTEDTATYFCARDLDYGPWFAYWGQGTTVTVSSGGGGSGGGGSGGGGSDIQMTQSPASLSASVGETVTLTCRASENIHNYLAWYQQKQGKSPQLLVYNVKTLADGVPSRFSGSGSGTQYSLKINSLQPEDFGSYYCQHFWSSPWTFGGGTKLEIKRHHHHHH
notes: also called anti-human PD-1 antibody
binds: [1] | [2] | [3] | [4]

B2: anti-PD-1-3 scFv antibody purified from Bifidobacterium longum 105-A/pHuSP7L20-scFv-PD-1-3 strain (scFv)
scFv: DSAQTSAVVSSRSFPKASSVMEVRLLESGGGLVKPEGSLKLSCVASGFTFSDYFMSWVRQAPGKGLEWVAHIYTKSYNYATYYSGSVKGRFTISRDDSRSMVYLQMNNLRTEDTATYYCTRDGSGYPSLDFWGQGTQVTVSSGGGGSGGGGSGGGGSYELTQPPSASVNVGETVKITCSGDQLPKYFADWFHQRSDQTILQVIYDDNKRPSGIPERISGSSSGTTATLTIRDVRAEDEGDYYCFSGYVDSDSKLYVFGSGTQLTVLGHHHHHH
notes: also called anti-mouse PD-1 scFv antibody; mPD-1 scFv
binds: [5] | [6]
